These results are taken from the supplement of paper PMC12889115.

This is one part of the list. Values are raw readings; no control value is given beside them.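 In the initial screen, polymyxin B was used at a concentration that permeabilizes Salmonella's outer membrane but not its inner membrane. Maximum growth was set by DMSO wells with or without polymyxin B. Since plates varied, data were ranked per plate, and compounds giving the lowest OD600 advanced as hits.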

This experiment has as its system Salmonella enterica serovar Typhimurium SL1344. As to the kind of experiment: bacterial growth OD600 after 18 h with compound and polymyxin B; higher = more bacterial growth (less inhibition). Conditions: 50 µM, Mueller-Hinton broth.

As for `O=C(Nc1ccc(Oc2cccnc2)cc1)C1CCCCN1CCCC(F)(F)F` (stereo not given), where the note is “polymyxin B 1 µg/mL”, the “bacterial growth OD600” value came out at 0.978.
As for `c1ccc(CCN2CCC(C3CCN(Cc4ncc[nH]4)C3)CC2)cc1` (stereo not given), the “bacterial growth OD600” value (polymyxin B 0.75 µg/mL) was 0.785.
The same measure, in the same setting: in the case of `CCN1CC(CNC2CCN(c3ccc(CC(=O)NCCc4cccc(F)c4)cc3)CC2)CC1=O` (stereo not given) it was 0.846.
On to `CC(=O)c1cc(CC(=O)N(C)CC2CCCN(CCc3ccc(Cl)cc3)C2)cs1` (stereo not given), for which the “bacterial growth OD600” value (polymyxin B 1 µg/mL) was 0.819.
`CCCCN(Cc1ccccc1)C(=O)CCC1(Cc2ccco2)CCC(=O)N1` (stereo not given): the “bacterial growth OD600” value (polymyxin B 0.75 µg/mL) amounted to 0.777.
Consider `CN(Cc1ccccc1)C(=O)CCC1CCN(S(=O)(=O)c2ccccc2Cl)CC1`, for which the “bacterial growth OD600” value (polymyxin B 1 µg/mL) is 0.818.
As to `Cc1ncc(CN2CCC(C3CCN(c4ncccn4)CC3)C2)n1C` (stereo not given), where the note is “polymyxin B 0.75 µg/mL”, the “bacterial growth OD600” value is 0.815.
Still for that read-out and setting: for `CCC(=O)N[C@@H]1c2ccccc2C2(CCN(Cc3ccc(F)c(OC)c3)CC2)[C@H]1OCCOC` the value was 0.882; for `CC(C)CN(C)C(=O)C1CCCN(C2CCN(c3nc4ccccc4o3)CC2)C1` (stereo not given), 0.95; for `CN(CC(O)c1ccccc1)C1CCN(c2cccc(NC(=O)CCCc3ccccc3)c2)CC1` (stereo not given), 0.719.
`COCCNC(=O)CCC1CCN(Cc2cnn(C)c2)CC1`: the “bacterial growth OD600” value (polymyxin B 1 µg/mL) amounted to 0.928.
Same read-out and setting: in the case of `COCC1CCN(C(=O)c2cc(COc3cccc(F)c3)[nH]n2)C1` (stereo not given) it was 0.96; in that of `CCOC(=O)N1CCN(Cc2c[nH]nc2-c2cccc3ccccc23)CC1`, 0.91; in that of `CCc1cc(C(=O)N2CCCC(CO)(Cc3ccc(F)cc3)C2)n(C)n1` (stereo not given), 1.05.
As for `CN(CCc1nc2cc(F)ccc2[nH]1)c1nc2nonc2nc1N1CCSCC1`, the “bacterial growth OD600” value (polymyxin B 0.75 µg/mL) was 0.933.
As to `O=C(NCc1ccccn1)C1CCN(C2CCN(Cc3cccc4nonc34)CC2)CC1`, the “bacterial growth OD600” value (polymyxin B 1 µg/mL) was determined as 0.843.
`COCC(=O)Nc1cc(C(=O)NCCc2ccco2)cc2ncn(CCc3ccccc3)c12`: where the note is “polymyxin B 0.75 µg/mL”, the “bacterial growth OD600” value turned out to be 1.
For the compound `COc1cccc(CN2C[C@@H]3C[C@@H](c4ccc(CO)o4)N4CCC[C@@]34C2=O)c1`, the “bacterial growth OD600” value (polymyxin B 1 µg/mL) amounted to 0.952.
The same measure, in the same setting: in the case of `CC(C)(C)C(=O)Nc1ccnn1C1CCN(C(=O)[C@@H]2C[C@H]2c2ccccc2)CC1` it was 0.926; in that of `CN(Cc1ccon1)c1ccc(C(=O)NCCC2CCCCN2C)cn1` (stereo not given), 0.939.
For the compound `CCC(=O)N(C)C(Cc1ccc(F)cc1F)C1CCN(C(=O)CCc2ccccc2Cl)CC1` (stereo not given), the “bacterial growth OD600” value (polymyxin B 0.75 µg/mL) was 0.004.
`CC(=O)Nc1ccc(CNCc2cccnc2Oc2ccccc2C)cc1`: the “bacterial growth OD600” value (polymyxin B 1 µg/mL) stood at 0.916.
Consider `COc1ccccc1CN1C[C@@H]2C[C@@H](c3cc(F)ccc3F)N3CCC[C@@]23C1=O`, for which the “bacterial growth OD600” value (polymyxin B 0.75 µg/mL) amounted to 0.006.
On the same count and under the same terms, in the case of `CCN1CCCC1CNC(=O)CCC1CCN(Cc2cc(CC(C)C)[nH]n2)CC1` (stereo not given) it was 0.772.
In the case of `Cc1cnc(C(=O)N2CC[C@@H](N3CCN(c4ccccc4F)CC3)[C@H](O)C2)cn1`, the “bacterial growth OD600” value (polymyxin B 1 µg/mL) is 0.898.
Still for that read-out and setting: in the case of `CN(Cc1cccnc1)CC1CCN(CCc2ccc(Cl)cc2)CC1` it was 0.768; in that of `COc1cc(C(=O)NCc2ccccc2C)ccc1OC1CCN(C(C)=O)CC1`, 1.06.
For `Cc1ccc(C)c(CN2CCC(N3CCCC(C(=O)NC4CC4)C3)CC2)c1` (stereo not given), the “bacterial growth OD600” value (polymyxin B 0.75 µg/mL) turned out to be 0.831.
On the same count and under the same terms, in the case of `Cc1c(CN2CCc3[nH]nc(-c4cccc(F)c4)c3C2)cnn1C` it was 0.836; in that of `O=C(C1CCCCC1)N1CCC(C2(c3ccccn3)NC(=O)N(CCc3cccs3)C2=O)CC1` (stereo not given), 0.836.
